Laboratory results reported in article PMC4481404.
These are yes or no findings as the source states them, for the method shown. Binding seen in cells or lysates may run through a third protein. Binding calls can cover weak binding; strength is not graded here. Tags and fused reporters may be left off the sequences shown.

Biological target: T1, Wnt8-Myc (UniProt P28026)
T1 sequence: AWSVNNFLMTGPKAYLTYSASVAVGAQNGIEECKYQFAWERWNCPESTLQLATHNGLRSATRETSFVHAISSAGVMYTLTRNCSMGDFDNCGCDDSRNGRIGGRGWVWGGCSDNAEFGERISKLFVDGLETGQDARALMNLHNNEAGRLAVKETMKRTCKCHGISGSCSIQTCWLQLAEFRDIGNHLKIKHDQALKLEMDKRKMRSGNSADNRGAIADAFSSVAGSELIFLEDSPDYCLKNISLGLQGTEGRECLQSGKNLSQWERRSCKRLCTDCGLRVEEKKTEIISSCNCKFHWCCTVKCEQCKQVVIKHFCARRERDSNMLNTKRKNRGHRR
Test: co-IP; tagged mRNAs (1 ng each) injected into two-cell X. laevis embryos, harvested at stage 10.5; lysis in PBS with 1% Triton X-100 and protease inhibitors; protein G-sepharose bound with anti-c-Myc or anti-HA antibody (Fig. 8a: anti-Myc IP); Western blot

Insulin3-HA (X. laevis)
binding: binds
